Laboratory results: patent US20160166637A1, “METHODS OF TREATING A CANCER THROUGH TARGETED DISRUPTION OF ALPHA CONNEXIN 43-ZONULA OCCLUDENS-1 (ZO-1) INTERACTION” (Virginia Tech Intellectual Properties, Inc., priority 2013, published 2016)
For at least one compound, name, drawing or mass did not settle the structure.

Columns and labels:
[1] = tested on: GS9-6 glioma stem cells; experiment: Sphere/colony formation assay (self-renewal); assay type: cell-based, human; conditions: FIG. 15
Description: To further investigate the effect of ACT-1 on glioma stem cells, the present inventors measured the capacity of glioma stem cells to self-renew. The unique feature that makes glioma stem cells different from other glioma cells is that glioma stem cells are able to copy themselves (termed as self-renewal). The well-established approach to measure self-renewal of stem cells is sphere/colony formation assay. The self-renewal of GS9-6 glioma stem cells treated with ACT-1 was then monitored. […] Two different doses of ACT-1 and TMZ were tested. Both treatments inhibited the self-renewal of GS9-6 (FIGS. 16 and 17). Thus, the data strongly indicate that ACT-1 sensitizes glioblastoma cells to TMZ.

[2] = tested on: GS9-6 cells; experiment: Viability of glioma stem cell line; assay type: cell-based, human; conditions: alone or in combination
Method: FIG. 13 is a graph showing the effects of ACT-1 treatment at concentrations from 30 to 120 μM on the viability of the glial stem cell (GSC) line GS9-6 with or without temozolomide.
The ACT-1 peptide was tested on a glioma stem cell (GSC) line alone or in combination with temozolomide (TMZ).

Cn1nnc2c(C(N)=O)ncn2c1=O [TMZ, temozolomide, reference compound]
self-renewal of GS9-6 cells [1]: not affected | viability of GS9-6 cells [2]: only mildly reduced the viability
